Results are given in words; binding and its absence hold for the method and conditions named. Some entries that bind do so weakly or less than the wild type.

By UniProt entry, the sequences of proteins in these tests, tags left out. Where a name states a change or a piece, a line headed by the entry shows the natural chain unless it says otherwise. Chains listed by the source or under a name are the forms on record and can include a tag or linker.
extracellular tau in the form of paired helical filaments (ePHF) (P10636, form named): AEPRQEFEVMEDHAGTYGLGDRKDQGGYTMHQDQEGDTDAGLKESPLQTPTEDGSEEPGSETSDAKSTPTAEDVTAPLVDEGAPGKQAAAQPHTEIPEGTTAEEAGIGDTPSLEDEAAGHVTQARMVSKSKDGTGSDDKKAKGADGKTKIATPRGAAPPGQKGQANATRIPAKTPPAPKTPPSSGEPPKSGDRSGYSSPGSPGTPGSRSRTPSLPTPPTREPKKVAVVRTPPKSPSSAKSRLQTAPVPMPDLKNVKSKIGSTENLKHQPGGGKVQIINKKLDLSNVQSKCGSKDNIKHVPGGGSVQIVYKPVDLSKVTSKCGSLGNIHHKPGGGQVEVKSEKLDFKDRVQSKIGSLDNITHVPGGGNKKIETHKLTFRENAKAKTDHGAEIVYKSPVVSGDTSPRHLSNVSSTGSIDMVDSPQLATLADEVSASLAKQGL

The target of the assay is extracellular tau in the form of paired helical filaments (ePHF) (UniProt P10636). The assay is described as follows: ELISA, ePHF tau coated on plate, control antibody, anti-mouse HRP detection. Background: An ELISA detects its analyte on a solid surface through an enzyme-linked reagent.

B1: anti-tau antibody IPN002 (control antibody) (antibody, mouse IgG1, kappa, V domains shown)
VH: EVHLVESGGALVKPGGSLKLSCAASGFSFSKYGMSWVRQTPDKRLEWVATISSSGSRTYYPDSVKGQFTISRDNAKNTLYLQMSSLKSEDTAMYYCSISWDGAMDYWGQGTSVTVSS
VL: DVLMTQTPLSLPVSLGDQASISCKSSQSIVHSNGNTYLEWYLQKPGQSPKLLVYKVSNRFSGVPDRFSGSGSGTDFTLKISRVEAEDLGTYYCFQGSLVPWAFGGGTKLEIKR
Regarding B1, the binding result is “binds”.

These data come from US20190224339A1.
